Reference: article PMC11420629 (2024)
These are yes or no findings as the source states them, for the method shown. Binding seen in cells or lysates may run through a third protein. Some entries that bind do so weakly or less than the wild type.

Amino acid sequences for entries named in this document (tags omitted). Residues count along the entry.
UniProt P23818, residues 19-907: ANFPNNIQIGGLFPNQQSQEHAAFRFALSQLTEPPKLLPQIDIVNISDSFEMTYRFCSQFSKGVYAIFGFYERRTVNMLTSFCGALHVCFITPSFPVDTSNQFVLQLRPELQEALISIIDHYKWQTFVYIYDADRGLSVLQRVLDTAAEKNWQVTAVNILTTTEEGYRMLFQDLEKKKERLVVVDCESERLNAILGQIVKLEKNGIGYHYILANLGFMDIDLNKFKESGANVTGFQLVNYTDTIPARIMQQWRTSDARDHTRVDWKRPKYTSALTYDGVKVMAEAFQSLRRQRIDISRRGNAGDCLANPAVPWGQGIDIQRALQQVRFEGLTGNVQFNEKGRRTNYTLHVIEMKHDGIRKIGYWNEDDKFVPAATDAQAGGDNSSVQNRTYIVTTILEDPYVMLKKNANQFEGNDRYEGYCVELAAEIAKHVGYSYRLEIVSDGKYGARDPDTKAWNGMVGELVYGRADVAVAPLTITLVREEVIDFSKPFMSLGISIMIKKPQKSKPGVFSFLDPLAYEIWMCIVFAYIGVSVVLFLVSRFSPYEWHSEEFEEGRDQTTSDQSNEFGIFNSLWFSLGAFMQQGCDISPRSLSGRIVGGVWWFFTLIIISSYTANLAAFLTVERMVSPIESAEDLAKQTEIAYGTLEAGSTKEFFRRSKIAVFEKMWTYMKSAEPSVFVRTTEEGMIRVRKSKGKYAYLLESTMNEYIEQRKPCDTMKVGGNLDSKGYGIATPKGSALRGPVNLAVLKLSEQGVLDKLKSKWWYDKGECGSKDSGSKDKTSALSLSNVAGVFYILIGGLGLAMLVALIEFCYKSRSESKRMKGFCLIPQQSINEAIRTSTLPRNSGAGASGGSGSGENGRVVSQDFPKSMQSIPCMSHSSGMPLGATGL

Tests used:
[1] = target: AMPA receptor subunit GluR1, endogenous in mouse brain and neurons (mouse (endogenous in C57BL/6 brain tissue and neuronal cells)) (UniProt P23818); assay: co-IP; endogenous proteins from mouse cortex and hippocampus in non-denaturing lysis buffer; IP with anti-GluR1 or anti-CIRP (IgG control) on Protein A/G beads overnight at 4°C, Western blot of the reciprocal protein; mice under NN, 14 days HH, HH + Tat-C16, and Cirp +/+, +/- and -/- genotypes
[2] = target: AMPA receptor subunit GluR1, endogenous in mouse brain and neurons (mouse (endogenous in C57BL/6 brain tissue and neuronal cells)) (UniProt P23818); assay: co-IP; endogenous proteins from neuronal cells, control or 1% O2 for 3 h; non-denaturing lysis buffer, Protein A/G beads, Western blot

B1: full‐length CIRP protein (SPR) (natural protein)
chain: MASDEGKLFVGGLSFDTNEQALEQVFSKYGQISEVVVVKDRETQRSRGFGFVTFENIDDAKDAMMAMNGKSVDGRQIRVDQAGKSSDNRSRGYRGGSAGGRGFFRGGRSRGRGFSRGGGDRGYGGGRFESRSGGYGGSRDYYASRSQGGSYGYRSSGGSYRDSYDSYATHNE
- binding [1]: binds
- binding [2]: binds
